Assay [1] concerns the target WDR26 (endogenous) (UniProt Q9H7D7). The experiment in a line: co-immunoprecipitation of endogenous proteins, western blot.
Assay [2] has the same target. Briefly: co-immunoprecipitation of endogenous proteins, western blot (FIG. 11b). (A western blot detects proteins with antibodies after separation by electrophoresis.)

Sequences of proteins named here, by UniProt entry; tags and fusion partners are left off.
UniProt Q9H7D7: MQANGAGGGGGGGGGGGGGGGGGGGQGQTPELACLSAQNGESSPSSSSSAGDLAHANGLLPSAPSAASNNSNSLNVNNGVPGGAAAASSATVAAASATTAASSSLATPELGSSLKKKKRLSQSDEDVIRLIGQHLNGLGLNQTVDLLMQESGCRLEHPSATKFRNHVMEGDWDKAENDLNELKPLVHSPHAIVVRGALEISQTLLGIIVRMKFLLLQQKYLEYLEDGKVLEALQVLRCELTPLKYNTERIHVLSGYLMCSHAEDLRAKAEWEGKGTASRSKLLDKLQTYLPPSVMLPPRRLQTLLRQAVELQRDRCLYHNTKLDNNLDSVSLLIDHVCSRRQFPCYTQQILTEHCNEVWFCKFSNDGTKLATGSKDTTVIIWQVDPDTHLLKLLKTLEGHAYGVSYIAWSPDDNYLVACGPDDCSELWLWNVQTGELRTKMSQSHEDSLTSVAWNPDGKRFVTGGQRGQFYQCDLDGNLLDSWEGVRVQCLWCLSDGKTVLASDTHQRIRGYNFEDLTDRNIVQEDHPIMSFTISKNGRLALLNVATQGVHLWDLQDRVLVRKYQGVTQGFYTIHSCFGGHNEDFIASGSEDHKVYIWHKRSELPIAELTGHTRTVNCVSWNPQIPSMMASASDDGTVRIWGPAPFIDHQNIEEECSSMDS

These are yes or no findings as the source states them, for the method shown. In cells and extracts the contact can be indirect. Some binding calls cover weakened binding; strength is not graded here.

B1: NOLC1 (also known as Nopp140) (protein, human, UniProt Q14978 1-699, looked up)
chain: MADAGIRRVVPSDLYPLVLGFLRDNQLSEVANKFAKATGATQQDANASSLLDIYSFWLKSAKVPERKLQANGPVAKKAKKKASSSDSEDSSEEEEEVQGPPAKKAAVPAKRVGLPPGKAAAKASESSSSEESSDDDDEEDQKKQPVQKGVKPQAKAAKAPPKKAKSSDSDSDSSSEDEPPKNQKPKITPVTVKAQTKAPPKPARAAPKIANGKAASSSSSSSSSSSSDDSEEEKAAATPKKTVPKKQVVAKAPVKAATTPTRKSSSSEDSSSDEEEEQKKPMKNKPGPYSSVPPPSAPPPKKSLGTQPPKKAVEKQQPVESSEDSSDESDSSSEEEKKPPTKAVVSKATTKPPPAKKAAESSSDSSDSDSSEDDEAPSKPAGTTKNSSNKPAVTTKSPAVKPAAAPKQPVGGGQKLLTRKADSSSSEEESSSSEEEKTKKMVATTKPKATAKAALSLPAKQAPQGSRDSSSDSDSSSSEEEEEKTSKSAVKKKPQKVAGGAAPSKPASAKKGKAESSNSSSSDDSSEEEEEKLKGKGSPRPQAPKANGTSALTAQNGKAAKNSEEEEEEKKKAAVVVSKSGSLKKRKQNEAAKEAETPQAKKIKLQTPNTFPKRKKGEKRASSPFRRVREEEIEVDSRVADNSFDAKRGAAGDWGERANQVLKFTKGKSFRHEKTKKKRGSYRGGSISVQVNSIKFDSE
Regarding B1, the binding entry with WDR26 (endogenous) [1] and with WDR26 (endogenous) [2] was “binds” each time.
